# Data reported in PMC4063736.
# No constants are given. Whether binding was seen depends on the method and setting. For some assays here: In cells and extracts the contact can be indirect. For some assays here: Binding calls can cover weak binding; strength is not graded here. For some assays here: Tags and fused reporters may be left off the sequences shown.
# B1: LpoA-mCherry expressed from the chromosome (protein, UniProt Q9KUE0 27-603)
# chain: CSTQPSSPDVVDITAQPLLTAQTYLMRADASQGNQQNDWLIMALKAAIEENNPDQAQLLIMRLAKQPLTPTQQAQWQLLRAQLLANTEQYQEALEQLSFQANWSLPQVQWQQYHQLRADIFTALDRSFDSTRELVALYGLSSNKDKEALADQIWANLNHYSASKIIKLSTEPDEAQLDGWLQLAIYMKTLGSDLPQLKNTLEKWLAENPQHPAAIYTPKAITDILALEIVKPTNTALLLPLTGKFAKQAQFIRDGFVFAMMNDADRQTNATLTIIDTNAETLESVDAILTSKQIDFVVGPLIKGNIEKLQQFQQSRGQMIPTLALNIPDQIDTTAGACYLALSPEQEVAQAAKHLFTQGYRYPLILAPQNAYGERVVEAFNEEWRRYSKNKVAVNLFGDKRQLQRNINSIFGLQDSQQNIAQMESLLGMGLESQPRSRRDIDAVYIVANSSELTLIKPFIEVAINPDTRPPKLFSNSNSNTGGRQYEDLSGVTYSDIPLLIQPAPSIKEQLTQIWPESSNAERRLQALGMDAYRLMVELPQMKIVEGYTIDGQTGVLSIDEQCVVQREISWAEHGVR
# B2: full-length His-PBP1A (enzyme, UniProt Q9KNU5 1-825)
# chain: MKFIKRLLVFSLICIILGVTTIFGFYFYVKSDLPDVATLRDVQLQTPMQVFSQDGKLIAQFGEKRRIPLKLEEMPKELIEAVIATEDSRYYEHYGFDPIGITRAAFAVLASGSASQGASTITQQLARNFFLSNEKKVMRKVKEIFIAIHIEQLLSKQEILELYLNKIYLGYRSYGVGAAAQAYFGKEVKDLTLGEIALIAGLPKAPSTMNPIYSVERATNRRNVVLQRMLDEKYITKAEYDAARAEPVLPKYHGAEIELNAPYVAEIARAWMVERYGEEAAYTSGMNVYTTVDSKLQRAANQAAINNLLAYDERHGYRGAEKELWQVNQPAWSSTQLSEYLSNEPTYGDMFPAAVLSVEEKSAQVWVKSYGVQTIAWEDMNWARRFINDDRQGPLPKSANEFLAAGQQIWVRPRTQDGAITAWKLTQVPNANTAFVAMNPENGAVTALVGGFNFVHNKFNRATQSVRQVGSSIKPFIYSAALNKGLTLATLINDAPINQWDESQGTAWRPKNSPPTYTGPTRLRIGLAQSKNVMAVRVLREVGLDETREYLTRFGFKLDQLPRSETIALGAGSLTPVQMAQGFSVFANNGYFVEPFYISRVENPFGNIEFSAEPKVVCHRECSSELDEFAEQDAASPYAPKVISEQNAFLTREMLYSNIWGGGEWSSDTGWNGTGWRAQALKRRDIGGKTGTTNDSKDAWYNGYAPGIVGVAWVGFDDHSRNLGKTAPNRNIEDDVSGAESGGKTALPAWVEFMSLALQDVPVQQKAVPNNIARVRIDRDTGLLTNKLDSSSMFEYFEAGTEPTEYVSEHVNESIYSTSSGEELF
# What was measured:
# [1] = biological target: 6x His-tagged CsiV expressed from its native chromosomal location (Vibrio cholerae); assay: pull-down
# [2] = biological target: truncated CsiV_(31-266)-His (Vibrio cholerae) (UniProt Q9KQW1); assay: pull-down; both purified
Binder,binding [1],binding [2]
B1,binds,
B2,,no binding (tested: 2.5 µM)
